Test results taken from the supplement of paper PMC10849652.
This is one part of the list.

Protein sequences, listed by entry. Tags and fused reporters are not part of them. Lines headed by an entry give the natural chain unless they say otherwise; changes in a name come on top.
UniProt P25325: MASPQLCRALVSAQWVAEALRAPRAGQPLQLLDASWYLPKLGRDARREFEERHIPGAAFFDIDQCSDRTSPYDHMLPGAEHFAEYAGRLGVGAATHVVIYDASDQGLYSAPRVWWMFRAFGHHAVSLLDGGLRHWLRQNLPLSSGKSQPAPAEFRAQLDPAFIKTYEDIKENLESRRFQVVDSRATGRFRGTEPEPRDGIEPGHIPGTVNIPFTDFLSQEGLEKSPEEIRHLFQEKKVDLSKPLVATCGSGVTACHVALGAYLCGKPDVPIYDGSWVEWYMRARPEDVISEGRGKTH
UniProt Q7RTP6, whole entry, looked up: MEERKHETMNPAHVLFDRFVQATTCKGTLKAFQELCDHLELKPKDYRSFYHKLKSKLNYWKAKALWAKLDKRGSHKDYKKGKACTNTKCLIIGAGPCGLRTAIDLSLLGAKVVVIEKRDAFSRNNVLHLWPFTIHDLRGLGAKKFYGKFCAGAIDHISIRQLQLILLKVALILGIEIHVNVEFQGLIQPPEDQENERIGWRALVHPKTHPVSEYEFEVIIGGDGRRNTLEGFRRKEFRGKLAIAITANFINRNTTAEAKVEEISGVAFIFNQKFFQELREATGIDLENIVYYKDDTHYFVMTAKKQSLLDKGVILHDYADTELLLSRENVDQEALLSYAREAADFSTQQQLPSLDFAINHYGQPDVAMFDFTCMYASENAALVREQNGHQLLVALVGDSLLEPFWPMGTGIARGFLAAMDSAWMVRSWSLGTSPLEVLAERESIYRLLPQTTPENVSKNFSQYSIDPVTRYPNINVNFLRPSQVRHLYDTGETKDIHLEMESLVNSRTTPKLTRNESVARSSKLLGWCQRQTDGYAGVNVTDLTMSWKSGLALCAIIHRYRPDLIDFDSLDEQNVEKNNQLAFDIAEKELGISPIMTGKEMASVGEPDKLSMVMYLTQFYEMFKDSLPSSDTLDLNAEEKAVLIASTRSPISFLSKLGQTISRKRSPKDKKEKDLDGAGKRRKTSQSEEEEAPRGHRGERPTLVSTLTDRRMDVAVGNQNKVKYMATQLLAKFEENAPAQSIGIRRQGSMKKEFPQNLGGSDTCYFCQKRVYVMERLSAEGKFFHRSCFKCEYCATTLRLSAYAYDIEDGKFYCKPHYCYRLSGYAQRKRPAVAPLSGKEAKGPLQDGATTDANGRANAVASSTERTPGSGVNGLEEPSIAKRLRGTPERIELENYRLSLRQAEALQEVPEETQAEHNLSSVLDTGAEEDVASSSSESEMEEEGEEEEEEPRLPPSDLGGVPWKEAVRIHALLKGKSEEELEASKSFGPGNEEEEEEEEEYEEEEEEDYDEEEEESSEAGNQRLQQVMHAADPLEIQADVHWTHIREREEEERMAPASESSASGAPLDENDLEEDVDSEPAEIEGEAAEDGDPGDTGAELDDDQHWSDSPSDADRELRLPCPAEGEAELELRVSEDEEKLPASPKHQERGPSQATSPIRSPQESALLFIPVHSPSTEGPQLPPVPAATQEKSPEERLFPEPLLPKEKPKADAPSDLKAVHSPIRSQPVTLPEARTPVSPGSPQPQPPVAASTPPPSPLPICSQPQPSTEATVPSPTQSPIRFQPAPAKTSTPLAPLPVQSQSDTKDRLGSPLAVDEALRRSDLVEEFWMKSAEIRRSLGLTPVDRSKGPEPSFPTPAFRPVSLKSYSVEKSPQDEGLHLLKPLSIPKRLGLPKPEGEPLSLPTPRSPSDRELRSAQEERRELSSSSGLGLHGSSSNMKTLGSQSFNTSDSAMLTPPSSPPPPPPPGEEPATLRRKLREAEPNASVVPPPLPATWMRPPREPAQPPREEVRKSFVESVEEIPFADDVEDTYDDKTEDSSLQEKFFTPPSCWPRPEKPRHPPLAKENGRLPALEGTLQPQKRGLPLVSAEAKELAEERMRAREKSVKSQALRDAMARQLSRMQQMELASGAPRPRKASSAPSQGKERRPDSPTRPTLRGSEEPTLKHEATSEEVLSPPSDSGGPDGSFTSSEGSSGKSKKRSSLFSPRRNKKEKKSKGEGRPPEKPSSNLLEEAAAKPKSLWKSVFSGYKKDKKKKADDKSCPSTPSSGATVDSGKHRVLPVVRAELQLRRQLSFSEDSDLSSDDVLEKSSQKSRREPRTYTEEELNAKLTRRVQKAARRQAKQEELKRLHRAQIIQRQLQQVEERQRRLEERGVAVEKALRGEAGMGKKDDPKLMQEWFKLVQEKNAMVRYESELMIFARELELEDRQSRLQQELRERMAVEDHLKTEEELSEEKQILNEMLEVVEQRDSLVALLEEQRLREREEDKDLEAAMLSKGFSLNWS
UniProt Q9NYP9: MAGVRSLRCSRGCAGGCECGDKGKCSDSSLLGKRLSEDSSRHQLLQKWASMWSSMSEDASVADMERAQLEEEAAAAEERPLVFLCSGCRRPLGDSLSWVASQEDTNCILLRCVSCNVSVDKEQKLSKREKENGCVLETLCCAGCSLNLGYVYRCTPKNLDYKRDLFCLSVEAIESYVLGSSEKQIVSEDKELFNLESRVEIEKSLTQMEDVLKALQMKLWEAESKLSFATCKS
UniProt Q8N4V1: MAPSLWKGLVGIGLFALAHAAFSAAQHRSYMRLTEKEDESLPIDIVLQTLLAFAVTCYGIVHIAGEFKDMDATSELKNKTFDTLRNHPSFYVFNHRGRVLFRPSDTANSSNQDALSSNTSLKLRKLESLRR
UniProt Q9H8M7: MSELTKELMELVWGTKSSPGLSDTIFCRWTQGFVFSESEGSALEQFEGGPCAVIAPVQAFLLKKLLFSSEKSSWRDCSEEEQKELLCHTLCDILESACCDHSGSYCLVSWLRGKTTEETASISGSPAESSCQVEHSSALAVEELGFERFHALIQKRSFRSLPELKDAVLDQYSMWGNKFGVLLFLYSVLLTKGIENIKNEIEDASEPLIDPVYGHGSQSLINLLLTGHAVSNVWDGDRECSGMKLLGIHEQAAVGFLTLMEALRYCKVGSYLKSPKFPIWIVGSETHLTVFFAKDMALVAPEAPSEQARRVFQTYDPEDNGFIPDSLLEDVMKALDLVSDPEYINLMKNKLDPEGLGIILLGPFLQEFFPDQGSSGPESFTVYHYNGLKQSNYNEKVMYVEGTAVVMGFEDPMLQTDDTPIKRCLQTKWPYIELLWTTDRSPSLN
UniProt Q14165: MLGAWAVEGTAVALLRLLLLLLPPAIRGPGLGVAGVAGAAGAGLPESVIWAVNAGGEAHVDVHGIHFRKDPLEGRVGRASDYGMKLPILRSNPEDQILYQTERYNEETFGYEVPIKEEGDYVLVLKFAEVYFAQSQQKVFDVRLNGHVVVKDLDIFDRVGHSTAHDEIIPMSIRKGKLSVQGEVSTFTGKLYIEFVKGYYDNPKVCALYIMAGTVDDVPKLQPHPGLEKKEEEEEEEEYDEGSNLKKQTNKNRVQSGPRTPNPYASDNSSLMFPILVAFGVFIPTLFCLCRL
UniProt Q13724: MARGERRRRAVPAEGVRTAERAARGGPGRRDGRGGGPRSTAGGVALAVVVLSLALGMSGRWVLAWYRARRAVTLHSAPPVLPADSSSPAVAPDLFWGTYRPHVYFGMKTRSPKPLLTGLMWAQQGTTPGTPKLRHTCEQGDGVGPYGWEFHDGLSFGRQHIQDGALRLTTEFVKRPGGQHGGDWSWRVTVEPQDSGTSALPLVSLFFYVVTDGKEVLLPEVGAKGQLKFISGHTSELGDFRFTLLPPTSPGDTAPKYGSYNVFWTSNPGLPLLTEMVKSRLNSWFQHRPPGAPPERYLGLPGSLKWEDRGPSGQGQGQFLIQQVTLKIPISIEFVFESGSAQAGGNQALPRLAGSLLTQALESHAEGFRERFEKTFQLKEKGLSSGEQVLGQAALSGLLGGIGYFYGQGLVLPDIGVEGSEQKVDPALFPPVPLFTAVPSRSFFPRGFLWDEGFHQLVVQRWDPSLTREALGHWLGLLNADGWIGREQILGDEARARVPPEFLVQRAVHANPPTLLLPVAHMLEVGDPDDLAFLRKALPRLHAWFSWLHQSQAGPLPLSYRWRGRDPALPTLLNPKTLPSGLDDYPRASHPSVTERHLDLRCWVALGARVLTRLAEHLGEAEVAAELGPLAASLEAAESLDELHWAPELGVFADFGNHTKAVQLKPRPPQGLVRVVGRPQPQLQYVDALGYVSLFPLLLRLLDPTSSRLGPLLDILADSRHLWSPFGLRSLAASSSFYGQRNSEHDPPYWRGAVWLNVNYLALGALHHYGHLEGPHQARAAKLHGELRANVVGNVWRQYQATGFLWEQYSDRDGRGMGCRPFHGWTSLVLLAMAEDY
UniProt Q9NXC5: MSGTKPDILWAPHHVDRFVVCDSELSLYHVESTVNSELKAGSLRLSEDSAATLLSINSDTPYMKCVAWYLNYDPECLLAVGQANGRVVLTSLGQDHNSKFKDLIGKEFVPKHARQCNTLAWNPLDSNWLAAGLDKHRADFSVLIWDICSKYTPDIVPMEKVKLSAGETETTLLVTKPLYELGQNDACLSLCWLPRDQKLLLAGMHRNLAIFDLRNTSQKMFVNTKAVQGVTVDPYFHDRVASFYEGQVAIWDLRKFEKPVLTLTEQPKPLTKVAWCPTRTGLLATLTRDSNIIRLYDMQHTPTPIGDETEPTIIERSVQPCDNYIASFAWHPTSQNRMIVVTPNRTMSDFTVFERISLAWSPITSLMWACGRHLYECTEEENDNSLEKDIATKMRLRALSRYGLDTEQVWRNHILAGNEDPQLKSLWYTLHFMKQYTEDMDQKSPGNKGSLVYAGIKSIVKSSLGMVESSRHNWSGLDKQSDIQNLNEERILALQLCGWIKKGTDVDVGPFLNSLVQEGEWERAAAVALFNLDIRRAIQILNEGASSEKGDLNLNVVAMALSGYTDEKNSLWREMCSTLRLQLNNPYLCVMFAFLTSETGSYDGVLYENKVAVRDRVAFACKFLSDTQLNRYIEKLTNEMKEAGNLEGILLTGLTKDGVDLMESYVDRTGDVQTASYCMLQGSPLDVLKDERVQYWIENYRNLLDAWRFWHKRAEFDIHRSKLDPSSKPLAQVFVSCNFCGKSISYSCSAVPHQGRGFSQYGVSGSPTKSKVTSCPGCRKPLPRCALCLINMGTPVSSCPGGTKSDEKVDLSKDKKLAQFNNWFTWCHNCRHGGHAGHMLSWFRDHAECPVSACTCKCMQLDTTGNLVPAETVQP
UniProt Q9UBU8, whole entry, looked up: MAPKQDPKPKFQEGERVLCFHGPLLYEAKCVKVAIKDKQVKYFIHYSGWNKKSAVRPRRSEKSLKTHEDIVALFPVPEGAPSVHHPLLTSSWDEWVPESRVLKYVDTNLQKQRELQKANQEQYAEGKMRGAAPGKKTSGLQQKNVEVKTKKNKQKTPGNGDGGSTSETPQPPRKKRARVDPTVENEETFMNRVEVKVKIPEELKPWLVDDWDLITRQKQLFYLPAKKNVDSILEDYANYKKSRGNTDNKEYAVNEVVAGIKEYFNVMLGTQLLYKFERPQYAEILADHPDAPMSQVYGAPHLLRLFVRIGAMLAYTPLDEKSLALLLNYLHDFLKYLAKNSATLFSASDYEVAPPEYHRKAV

compound: c1cn2cc(-c3ccc4cn[nH]c4c3)nc(Nc3ccc(N4CCOCC4)cc3)c2n1 [entospletinib]; experiment: log2 fold change, soluble protein after heating vs DMSO (PISA); higher = thermal stabilisation; K562 cells, 10 uM, 30 min; active = over 0.2 and 3.5 SD of the protein, either way, in both replicates (recomputed)
Summary of the method: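 Values are thermal stability changes relative to control samples and are taken from duplicates. They are stated as log2 fold changes. Before quantification by TMTpro 16plex LC-MS/MS with equalised channel sums, K562 cells at 2×10^6 cells/mL were treated with 10 μM compound for 30 min, heated in aliquots for 3 min across 48°C-58°C, pooled, extracted in PBS with 0.5% NP-40 at 4°C, and centrifuged at 21,000xg for 90 min to give the soluble supernatant.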

log2 fold change, inactive:
MPST isoform 2 (UniProt P25325) -0.023
MRPL52 (UniProt Q86TS9) 0.06
MRAS (UniProt O14807) 0.107
MRPL2 (UniProt Q5T653) 0.116
MICAL3 (UniProt Q7RTP6) 0.025
MRPL21 (UniProt Q7Z2W9) 0.016
MRPL41 (UniProt Q8IXM3) 0.084
MRPL49 (UniProt Q13405) 0.146
MRPL55 isoform 2 (UniProt Q7Z7F7) 0.109
MIS18A (UniProt Q9NYP9) -0.007
MMGT1 isoform 2 (UniProt Q8N4V1) -0.033
MRPL28 (UniProt Q13084) 0.058
MINDY3 (UniProt Q9H8M7) -0.006
MRPL30 isoform 2 (UniProt Q8TCC3) 0.081
MLEC (UniProt Q14165) 0.011
MRPL35 (UniProt Q9NZE8) 0.072
MOGS (UniProt Q13724) -0.03
MIOS (UniProt Q9NXC5) 0.052
MRPL23 (UniProt Q16540) 0.054
MORF4L1 isoform 2 (UniProt Q9UBU8) 0.01
MRPL44 (UniProt Q9H9J2) 0.042
MKKS (UniProt Q9HB66) 0.086
MRPL45 (UniProt Q9BRJ2) 0.021

Random excerpt: 2 entries already listed, in no set order.
log2 fold change, inactive:
MIS18A (UniProt Q9NYP9) -0.007
MRPL35 (UniProt Q9NZE8) 0.072
